# Some of these results come from one statement about several compounds together.
# Tested on: Hep3B (human hepatoma cell line) cells
# Assay: AAV2/6 delivery of albumin ZFNs to Hep3B cells after growth factor receptor inhibitor pre-incubation; % indels by deep sequencing
# Type: cell-based
# Details: dose-dependent, at conc. of 9 μM, compared to control
# Method: In order to test the relative contribution of co-receptors to AAV transduction, inhibitors against epidermal growth factor receptor (EGFR), hepatocyte growth factor receptor (HGFR), fibroblast growth factor receptor (FGFR) and platelet-derived growth factor receptor (PDGFR) were used prior to in vitro AAV2/6 transduction experiments in Hep3B (human hepatoma cell line) cells using zinc-finger nucleases (ZFNs) targeting the human albumin locus. Hep3B cells were plated at a density of 1×10^5 cells per well in a 48-well tissue culture plate in 300 μL complete growth media the day before transduction with AAV2/6. On the morning of transduction, the cells were washed three times with serum-free media and incubated in the serum-free media for three hours. Growth factor receptor inhibitors were added to the wells and incubated for one hour. AAV2/6 particles to deliver ZFNs targeted to the albumin locus were then added to the wells. After three hours, serum was added to the wells to a final concentration of 10%. The cells were harvested on day 4 post-transduction. Genomic DNA was extracted and analyzed by deep sequencing (MiSeq) at the albumin locus. The growth factor receptor inhibitors used are shown below in Table 1, and they were used in the experiment in the concentrations indicated in FIG. 3, where each inhibitor is labeled by its target.
row,Compound,stimulation of indel formation
1,COCCOc1ccc2c(c1)ncn2-c1ccc2cccc(N3CCC(N)CC3)c2n1 [CP-673451],up to 8 fold
2,CC1(COc2ccc3c(c2)ncn3-c2ccc3cccc(N4CCC(N)CC4)c3n2)COC1 [Crenolanib],up to 8 fold

# Source: US10450585B2, “Delivery methods and compositions for nuclease-mediated genome engineering” (Sangamo Therapeutics, Inc., priority 2015, dated 2019)
